These are yes or no findings as the source states them, for the method shown. Some results given as binding are weak or reduced against the parent protein; the word gives no strength.
Target: T1, partial-length periostin (R1/R2/R3 regions) (Homo sapiens (Human)) (UniProt Q15063)
T1 sequence: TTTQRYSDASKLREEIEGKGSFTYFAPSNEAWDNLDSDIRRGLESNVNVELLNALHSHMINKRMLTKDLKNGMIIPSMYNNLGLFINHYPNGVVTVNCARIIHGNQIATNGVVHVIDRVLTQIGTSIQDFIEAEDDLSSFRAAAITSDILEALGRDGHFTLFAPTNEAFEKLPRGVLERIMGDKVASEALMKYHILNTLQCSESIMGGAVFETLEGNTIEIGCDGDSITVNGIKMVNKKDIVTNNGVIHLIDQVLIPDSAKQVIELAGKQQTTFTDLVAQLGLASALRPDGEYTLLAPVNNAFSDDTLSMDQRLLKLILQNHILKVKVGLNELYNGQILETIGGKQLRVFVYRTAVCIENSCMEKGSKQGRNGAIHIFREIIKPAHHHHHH
Test: ELISA on immobilized antigen (5 ug/mL), A405; bound if difference to control well is 0.2 or more

B1: anti-periostin monoclonal antibody (SS19D) (antibody, V domains shown)
VH: QVQLQQPGSELVKPGASVKLSCKASGYTFTSYWMHWVKQSPGQGLEWIGEINPSNGRTNYNEKFKTKATLTVDKSSSTAYMQLNSLTSEDSAVYYCVRGDEGFAYWGQGTLVTVSA
VL: NIVLTQSPASLAVSLGQRATISCSASESVDSYGRSFIHWFQQKPGQPPKLLIYLASYLESGVPARFSGSGSRTDFTLTIDPVEADDAATYYCHQNNEDPPTFGGGAKLEIKR
Question: For B1, which binding is on record?
Answer: binds
